The labels stand for the following.
B1: IARS (enzyme, UniProt P41252 1-1262)
chain: MLQQVPENINFPAEEEKILEFWTEFNCFQECLKQSKHKPKFTFYDGPPFATGLPHYGHILAGTIKDIVTRYAHQSGFHVDRRFGWDCHGLPVEYEIDKTLGIRGPEDVAKMGITEYNNQCRAIVMRYSAEWKSTVSRLGRWIDFDNDYKTLYPQFMESVWWVFKQLYDKGLVYRGVKVMPFSTACNTPLSNFESHQNYKDVQDPSVFVTFPLEEDETVSLVAWTTTPWTLPSNLAVCVNPEMQYVKIKDVARGRLLILMEARLSALYKLESDYEILERFPGAYLKGKKYRPLFDYFLKCKENGAFTVLVDNYVKEEEGTGVVHQAPYFGAEDYRVCMDFNIIRKDSLPVCPVDASGCFTTEVTDFAGQYVKDADKSIIRTLKEQGRLLVATTFTHSYPFCWRSDTPLIYKAVPSWFVRVENMVDQLLRNNDLCYWVPELVREKRFGNWLKDARDWTISRNRYWGTPIPLWVSDDFEEVVCIGSVAELEELSGAKISDLHRESVDHLTIPSRCGKGSLHRISEVFDCWFESGSMPYAQVHYPFENKREFEDAFPADFIAEGIDQTRGWFYTLLVLATALFGQPPFKNVIVNGLVLASDGQKMSKRKKNYPDPVSIIQKYGADALRLYLINSPVVRAENLRFKEEGVRDVLKDVLLPWYNAYRFLIQNVLRLQKEEEIEFLYNENTVRESPNITDRWILSFMQSLIGFFETEMAAYRLYTVVPRLVKFVDILTNWYVRMNRRRLKGENGMEDCVMALETLFSVLLSLCRLMAPYTPFLTELMYQNLKVLIDPVSVQDKDTLSIHYLMLPRVREELIDKKTESAVSQMQSVIELGRVIRDRKTIPIKYPLKEIVVIHQDPEALKDIKSLEKYIIEELNVRKVTLSTDKNKYGIRLRAEPDHMVLGKRLKGAFKAVMTSIKQLSSEELEQFQKTGTIVVEGHELHDEDIRLMYTFDQATGGTAQFEAHSDAQALVLLDVTPDQSMVDEGMAREVINRIQKLRKKCNLVPTDEITVYYKAKSEGTYLNSVIESHTEFIFTTIKAPLKPYPVSPSDKVLIQEKTQLKGSELEITLTRGSSLPGPACAYVNLNICANGSEQGGVLLLENPKGDNRLDLLKLKSVVTSIFGVKNTELAVFHDETEIQNQTDLLSLSGKTLCVTAGSAPSLINSSSTLLCQYINLQLLNAKPQECLMGTVGTLLLENPLGQNGLTHQGLLYEAAKVFGLRSRKLKLFLNETQTQEITEDIPVKTLNMKTVYVSVLPTTADF
B2: QARS (enzyme, UniProt P47897 1-775)
chain: MAALDSLSLFTSLGLSEQKARETLKNSALSAQLREAATQAQQTLGSTIDKATGILLYGLASRLRDTRRLSFLVSYIASKKIHTEPQLSAALEYVRSHPLDPIDTVDFERECGVGVIVTPEQIEEAVEAAINRHRPQLLVERYHFNMGLLMGEARAVLKWADGKMIKNEVDMQVLHLLGPKLEADLEKKFKVAKARLEETDRRTAKDVVENGETADQTLSLMEQLRGEALKFHKPGENYKTPGYVVTPHTMNLLKQHLEITGGQVRTRFPPEPNGILHIGHAKAINFNFGYAKANNGICFLRFDDTNPEKEEAKFFTAICDMVAWLGYTPYKVTYASDYFDQLYAWAVELIRRGLAYVCHQRGEELKGHNTLPSPWRDRPMEESLLLFEAMRKGKFSEGEATLRMKLVMEDGKMDPVAYRVKYTPHHRTGDKWCIYPTYDYTHCLCDSIEHITHSLCTKEFQARRSSYFWLCNALDVYCPVQWEYGRLNLHYAVVSKRKILQLVATGAVRDWDDPRLFTLTALRRRGFPPEAINNFCARVGVTVAQTTMEPHLLEACVRDVLNDTAPRAMAVLESLRVIITNFPAAKSLDIQVPNFPADETKGFHQVPFAPIVFIERTDFKEEPEPGFKRLAWGQPVGLRHTGYVIELQHVVKGPSGCVESLEVTCRRADAGEKPKAFIHWVSQPLMCEVRLYERLFQHKNPEDPTEVPGGFLSDLNLASLHVVDAALVDCSVALAKPFDKFQFERLGYFSVDPDSHQGKLVFNRTVTLKEDPGKV
B3: CARS (enzyme, UniProt P49589 1-748)
chain: MADSSGQQGKGRRVQPQWSPPAGTQPCRLHLYNSLTRNKEVFIPQDGKKVTWYCCGPTVYDASHMGHARSYISFDILRRVLKDYFKFDVFYCMNITDIDDKIIKRARQNHLFEQYREKRPEAAQLLEDVQAALKPFSVKLNETTDPDKKQMLERIQHAVQLATEPLEKAVQSRLTGEEVNSCVEVLLEEAKDLLSDWLDSTLGCDVTDNSIFSKLPKFWEGDFHRDMEALNVLPPDVLTRVSEYVPEIVNFVQKIVDNGYGYVSNGSVYFDTAKFASSEKHSYGKLVPEAVGDQKALQEGEGDLSISADRLSEKRSPNDFALWKASKPGEPSWPCPWGKGRPGWHIECSAMAGTLLGASMDIHGGGFDLRFPHHDNELAQSEAYFENDCWVRYFLHTGHLTIAGCKMSKSLKNFITIKDALKKHSARQLRLAFLMHSWKDTLDYSSNTMESALQYEKFLNEFFLNVKDILRAPVDITGQFEKWGEEEAELNKNFYDKKTAIHKALCDNVDTRTVMEEMRALVSQCNLYMAARKAVRKRPNQALLENIALYLTHMLKIFGAVEEDSSLGFPVGGPGTSLSLEATVMPYLQVLSEFREGVRKIAREQKVPEILQLSDALRDNILPELGVRFEDHEGLPTVVKLVDRNTLLKEREEKRRVEEEKRKKKEEAARRKQEQEAAKLAKMKIPPSEMFLSETDKYSKFDENGLPTHDMEGKELSKGQAKKLKKLFEAQEKLYKEYLQMAQNGSFQ
B4: WARS (enzyme, UniProt P23381 1-471)
chain: MPNSEPASLLELFNSIATQGELVRSLKAGNASKDEIDSAVKMLVSLKMSYKAAAGEDYKADCPPGNPAPTSNHGPDATEAEEDFVDPWTVQTSSAKGIDYDKLIVRFGSSKIDKELINRIERATGQRPHHFLRRGIFFSHRDMNQVLDAYENKKPFYLYTGRGPSSEAMHVGHLIPFIFTKWLQDVFNVPLVIQMTDDEKYLWKDLTLDQAYSYAVENAKDIIACGFDINKTFIFSDLDYMGMSSGFYKNVVKIQKHVTFNQVKGIFGFTDSDCIGKISFPAIQAAPSFSNSFPQIFRDRTDIQCLIPCAIDQDPYFRMTRDVAPRIGYPKPALLHSTFFPALQGAQTKMSASDPNSSIFLTDTAKQIKTKVNKHAFSGGRDTIEEHRQFGGNCDVDVSFMYLTFFLEDDDKLEQIRKDYTSGAMLTGELKKALIEVLQPLIAEHQARRKEVTDEIVKEFMTPRKLSFDFQ
B5: GARS (enzyme, UniProt P41250 37-739)
chain: SAASCPPISLPAAASRSSMDGAGAEEVLAPLRLAVRQQGDLVRKLKEDKAPQVDVDKAVAELKARKRVLEAKELALQPKDDIVDRAKMEDTLKRRFFYDQAFAIYGGVSGLYDFGPVGCALKNNIIQTWRQHFIQEEQILEIDCTMLTPEPVLKTSGHVDKFADFMVKDVKNGECFRADHLLKAHLQKLMSDKKCSVEKKSEMESVLAQLDNYGQQELADLFVNYNVKSPITGNDLSPPVSFNLMFKTFIGPGGNMPGYLRPETAQGIFLNFKRLLEFNQGKLPFAAAQIGNSFRNEISPRSGLIRVREFTMAEIEHFVDPSEKDHPKFQNVADLHLYLYSAKAQVSGQSARKMRLGDAVEQGVINNTVLGYFIGRIYLYLTKVGISPDKLRFRQHMENEMAHYACDCWDAESKTSYGWIEIVGCADRSCYDLSCHARATKVPLVAEKPLKEPKTVNVVQFEPSKGAIGKAYKKDAKLVMEYLAICDECYITEMEMLLNEKGEFTIETEGKTFQLTKDMINVKRFQKTLYVEEVVPNVIEPSFGLGRIMYTVFEHTFHVREGDEQRTFFSFPAVVAPFKCSVLPLSQNQEFMPFVKELSEALTRHGVSHKVDDSSGSIGRRYARTDEIGVAFGVTIDFDTVNKTPHTATLRDRDSMRQIRAEISELPSIVQDLANGNITWADVEARYPLFEGQETGKKETIEE
B6: MARS (enzyme, UniProt P56192 1-900)
chain: MRLFVSDGVPGCLPVLAAAGRARGRAEVLISTVGPEDCVVPFLTRPKVPVLQLDSGNYLFSTSAICRYFFLLSGWEQDDLTNQWLEWEATELQPALSAALYYLVVQGKKGEDVLGSVRRALTHIDHSLSRQNCPFLAGETESLADIVLWGALYPLLQDPAYLPEELSALHSWFQTLSTQEPCQRAAETVLKQQGVLALRPYLQKQPQPSPAEGRAVTNEPEEEELATLSEEEIAMAVTAWEKGLESLPPLRPQQNPVLPVAGERNVLITSALPYVNNVPHLGNIIGCVLSADVFARYSRLRQWNTLYLCGTDEYGTATETKALEEGLTPQEICDKYHIIHADIYRWFNISFDIFGRTTTPQQTKITQDIFQQLLKRGFVLQDTVEQLRCEHCARFLADRFVEGVCPFCGYEEARGDQCDKCGKLINAVELKKPQCKVCRSCPVVQSSQHLFLDLPKLEKRLEEWLGRTLPGSDWTPNAQFITRSWLRDGLKPRCITRDLKWGTPVPLEGFEDKVFYVWFDATIGYLSITANYTDQWERWWKNPEQVDLYQFMAKDNVPFHSLVFPCSALGAEDNYTLVSHLIATEYLNYEDGKFSKSRGVGVFGDMAQDTGIPADIWRFYLLYIRPEGQDSAFSWTDLLLKNNSELLNNLGNFINRAGMFVSKFFGGYVPEMVLTPDDQRLLAHVTLELQHYHQLLEKVRIRDALRSILTISRHGNQYIQVNEPWKRIKGSEADRQRAGTVTGLAVNIAALLSVMLQPYMPTVSATIQAQLQLPPPACSILLTNFLCTLPAGHQIGTVSPLFQKLENDQIESLRQRFGGGQAKTSPKPAVVETVTTAKPQQIQALMDEVTKQGNIVRELKAQKADKNEVAAEVAKLLDLKKQLAVAEGKPPEAPKGKKKK
B7: Threonyl-tRNA synthetase (TARS) (enzyme, UniProt P26639 1-723)
chain: MFEEKASSPSGKMGGEEKPIGAGEEKQKEGGKKKNKEGSGDGGRAELNPWPEYIYTRLEMYNILKAEHDSILAEKAEKDSKPIKVTLPDGKQVDAESWKTTPYQIACGISQGLADNTVIAKVNNVVWDLDRPLEEDCTLELLKFEDEEAQAVYWHSSAHIMGEAMERVYGGCLCYGPPIENGFYYDMYLEEGGVSSNDFSSLEALCKKIIKEKQAFERLEVKKETLLAMFKYNKFKCRILNEKVNTPTTTVYRCGPLIDLCRGPHVRHTGKIKALKIHKNSSTYWEGKADMETLQRIYGISFPDPKMLKEWEKFQEEAKNRDHRKIGRDQELYFFHELSPGSCFFLPKGAYIYNALIEFIRSEYRKRGFQEVVTPNIFNSRLWMTSGHWQHYSENMFSFEVEKELFALKPMNCPGHCLMFDHRPRSWRELPLRLADFGVLHRNELSGALTGLTRVRRFQQDDAHIFCAMEQIEDEIKGCLDFLRTVYSVFGFSFKLNLSTRPEKFLGDIEVWDQAEKQLENSLNEFGEKWELNSGDGAFYGPKIDIQIKDAIGRYHQCATIQLDFQLPIRFNLTYVSHDGDDKKRPVIVHRAILGSVERMIAILTENYGGKWPFWLSPRQVMVVPVGPTCDEYAQKVRQQFHDAKFMADIDLDPGCTLNKKIRNAQLAQYNFILVVGEKEKISGTVNIRTRDNKVHGERTISETIERLQQLKEFRSKQAEEEF

By UniProt entry, the sequences of proteins in these tests, tags left out.
UniProt Q15046: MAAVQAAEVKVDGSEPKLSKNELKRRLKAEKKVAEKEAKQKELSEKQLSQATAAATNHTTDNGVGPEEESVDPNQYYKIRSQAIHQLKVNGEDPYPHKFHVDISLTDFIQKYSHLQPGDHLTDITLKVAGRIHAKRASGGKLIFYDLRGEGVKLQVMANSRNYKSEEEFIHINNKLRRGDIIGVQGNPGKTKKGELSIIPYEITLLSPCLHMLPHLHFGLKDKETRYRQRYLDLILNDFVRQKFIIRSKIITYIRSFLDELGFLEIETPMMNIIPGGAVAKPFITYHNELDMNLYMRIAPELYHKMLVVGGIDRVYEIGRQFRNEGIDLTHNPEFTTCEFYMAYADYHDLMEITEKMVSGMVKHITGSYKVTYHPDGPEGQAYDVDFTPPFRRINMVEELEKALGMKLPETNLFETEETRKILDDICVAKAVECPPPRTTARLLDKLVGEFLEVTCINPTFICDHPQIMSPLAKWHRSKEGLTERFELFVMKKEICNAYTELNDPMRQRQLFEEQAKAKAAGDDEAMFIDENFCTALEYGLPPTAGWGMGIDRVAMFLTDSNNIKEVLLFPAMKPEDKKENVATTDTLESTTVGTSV
UniProt P07814: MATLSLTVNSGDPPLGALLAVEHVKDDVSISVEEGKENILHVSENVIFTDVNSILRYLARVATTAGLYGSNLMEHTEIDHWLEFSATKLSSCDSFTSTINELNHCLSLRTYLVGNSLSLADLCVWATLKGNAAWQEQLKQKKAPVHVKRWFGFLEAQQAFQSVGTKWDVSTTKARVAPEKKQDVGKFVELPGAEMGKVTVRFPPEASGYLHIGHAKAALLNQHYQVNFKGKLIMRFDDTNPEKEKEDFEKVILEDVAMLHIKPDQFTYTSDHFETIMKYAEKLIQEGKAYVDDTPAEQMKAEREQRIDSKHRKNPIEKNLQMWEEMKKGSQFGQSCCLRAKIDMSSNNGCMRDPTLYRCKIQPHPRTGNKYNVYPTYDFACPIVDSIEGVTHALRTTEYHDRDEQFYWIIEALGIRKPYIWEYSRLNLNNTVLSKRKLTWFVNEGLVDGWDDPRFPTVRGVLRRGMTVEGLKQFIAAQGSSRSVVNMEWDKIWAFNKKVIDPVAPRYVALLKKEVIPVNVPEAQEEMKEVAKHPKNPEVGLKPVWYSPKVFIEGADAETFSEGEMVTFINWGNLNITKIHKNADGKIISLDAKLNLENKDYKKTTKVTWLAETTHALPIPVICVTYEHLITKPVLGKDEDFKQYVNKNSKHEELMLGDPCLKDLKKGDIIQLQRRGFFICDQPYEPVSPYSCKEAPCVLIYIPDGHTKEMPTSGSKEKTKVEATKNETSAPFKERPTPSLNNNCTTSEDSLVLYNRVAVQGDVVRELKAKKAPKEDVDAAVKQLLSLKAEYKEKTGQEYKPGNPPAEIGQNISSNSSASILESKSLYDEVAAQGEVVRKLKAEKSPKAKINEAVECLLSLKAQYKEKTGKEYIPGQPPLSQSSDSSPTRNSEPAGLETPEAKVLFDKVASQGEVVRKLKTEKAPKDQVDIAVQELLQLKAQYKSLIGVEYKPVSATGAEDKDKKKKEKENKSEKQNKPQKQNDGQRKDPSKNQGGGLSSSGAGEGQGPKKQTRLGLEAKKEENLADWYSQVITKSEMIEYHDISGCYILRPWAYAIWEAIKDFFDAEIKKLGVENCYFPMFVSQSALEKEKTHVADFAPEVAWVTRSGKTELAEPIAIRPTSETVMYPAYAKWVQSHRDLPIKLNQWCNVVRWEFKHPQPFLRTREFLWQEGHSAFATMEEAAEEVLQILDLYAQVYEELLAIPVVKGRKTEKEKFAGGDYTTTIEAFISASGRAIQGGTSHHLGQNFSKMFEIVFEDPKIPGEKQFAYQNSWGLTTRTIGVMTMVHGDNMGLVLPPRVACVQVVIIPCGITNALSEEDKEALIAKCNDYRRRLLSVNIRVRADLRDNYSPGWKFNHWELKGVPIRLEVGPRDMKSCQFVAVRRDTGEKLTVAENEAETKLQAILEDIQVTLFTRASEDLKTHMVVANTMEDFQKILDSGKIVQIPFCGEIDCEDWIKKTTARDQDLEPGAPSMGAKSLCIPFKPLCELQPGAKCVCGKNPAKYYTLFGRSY

No constants are given. Whether binding was seen depends on the method and setting. Binding seen in cells or lysates may run through a third protein. Here binding means that the protein was enriched with, or labelled near, the bait; the list need not be complete. A no says only that the protein was not detected with the bait.

The target in this assay is lysyl-tRNA synthetase (KARS) tagged with S/FLAG/SBP (UniProt Q15046). Description: affinity purification with mass spectrometry; S/FLAG/SBP-KARS in lysate (2 mg) of transfected HEK 293T cells held on streptavidin agarose, NETN buffer (20 mM Tris-HCl pH 7.5, 1 mM EDTA, 150 mM NaCl, 0.1% NP-40), 2 h, 4°C, three washes, eluted with 0.82 mM biotin; eluate fractionated by SEC (Superdex 200, PBS) and each fraction read by MRM-MS. Background: Size exclusion chromatography separates by hydrodynamic size, large species first.
Consider “EPRS (from UniProt P07814 1-1512) (enzyme)”, for which the binding entry is “binds”. The value for B1 was “binds”. Then B2, with “binds”; and B3, with “no binding”. Turning to B4, the binding entry is “no binding”. The value for B5 was “no binding”; that for B6 was “binds”; that for B7 was “no binding”.

Source of the values: article PMC4636271.
